PubChem BioAssay AID540303 (National Center for Advancing Translational Sciences (NCATS), 2011)
About 1,000 (0.3%) of roughly 330,000 compounds were called active. This list was built around the results that the source calls inconclusive (neither active nor inactive); the mix of calls is not that of the screen. Calls come from the whole dose curve; as a rule, active = well fitted inhibition curve with a large enough effect; inconclusive = small, poorly fitted or top-dose-only effect; inactive = no such curve, though single readings can be large or run the other way; tested in mouse RAW 264.7 cells. Potencies of inconclusive entries are doubtful fits and often do not repeat.
% is set by controls: 0 for no effect and ±100 for the full control effect; potency is the fitted concentration of half-maximal effect.

Experiment: qHTS for Inhibitors of Cell Surface uPA Generation; note: nearly all actives have a fitted effect of over 55% in size
Settings: cell surface uPA generation assay; series mostly up to 38.3 µM; activity change, negative = inhibition: at the top concentration
Summary of the method: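 Validation set in qHTS format. RAW 264.7 cells were pre-plated overnight and then exposed to compounds (up to 38.3 uM final) for 24 h at 37 C in 5% CO2, followed by a luminescent ATP-Lite measurement.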
With `Oc1cc2c(cc1O)CN(C(=S)NCCc1ccc(Cl)cc1)CCC2` the Potency was inconclusive: 0.891 µM [inhibitor, full curve, poor fit]. For `C/C(=N\O)c1ccc2c3ccccc3n(C)c2c1`, the “activity change, negative = inhibition” value was inactive: -3.93%. With `Cc1ccc(N(C)S(=O)(=O)c2ccc(-c3cc(C)no3)s2)cc1` the Potency was active: 2.24 µM. For `CC(=O)Nc1ccc2nc(NC(=O)c3cccnc3)sc2c1`, the Potency was inconclusive: 11.2 µM [inhibitor, single point]. In the case of `COCCN1CCC(CNCc2cn(-c3cc(C)ccc3C)nc2-c2ccccc2)C1` (stereo not given), the Potency is reported as inconclusive: 5.62 µM [inhibitor, partial curve, poor fit]. In the case of `COc1ccc(/C=C(/C(=O)c2cccs2)N2C=CC=CC2=C(C#N)C#N)cc1`, the Potency is reported as inconclusive: 10 µM [inhibitor, partial curve, poor fit]. With `O=C(c1cccc(Oc2c(Cl)cccc2[N+](=O)[O-])c1)N1CCOCC1` the Potency was inconclusive: 8.91 µM [inhibitor, partial curve]. With `Cc1ccc(S(=O)(=O)Nc2cccc(C(=O)NC3CCN(Cc4ccccc4)CC3)c2)cc1F` the Potency was inconclusive: 12.6 µM [inhibitor, partial curve, poor fit]. In the case of `O=C(NCCN1C(=O)CSC1=O)c1ccccc1`, the “activity change, negative = inhibition” value is reported as inactive: -4.1%. For `COc1ccc(NS(=O)(=O)c2cc(NC(=O)c3cccs3)ccc2N2CCOCC2)cc1`, the Potency was inconclusive: 11.2 µM [inhibitor, single point]. For `COC(=O)c1c(N)sc(C(=O)NCCc2ccccc2)c1C`, the “activity change, negative = inhibition” value was inactive: -15.6%. In the case of `CC1CCN(CC(O)COC2CC(C)CCC2C(C)C)CC1` (stereo not given), the Potency is reported as inconclusive: 12.6 µM [inhibitor, single point]. In the case of `CNc1nnc(-c2ccc(N(C)C)cc2)s1`, the Potency is reported as inconclusive: 2 µM [inhibitor, partial curve]. For `Cc1ccc(S(=O)(=O)N/N=C\c2ccccc2OCc2ccccc2)cc1`, the Potency was inconclusive: 12.6 µM [inhibitor, single point]. In the case of `COc1cccc(CN(C)C(=O)CSCC(=O)Nc2cccc(C)c2)c1OC`, the Potency is reported as inconclusive: 12.6 µM [inhibitor, single point]. In the case of `CCc1ccc(NC(=O)C(C)Sc2ccc(S(=O)(=O)N3CCN(C)CC3)cn2)cc1` (stereo not given), the Potency is reported as inconclusive: 3.16 µM [inhibitor, partial curve]. For `Cc1nc(CSc2ccc(Cl)cc2)cc(NCc2ccccc2)n1`, the “activity change, negative = inhibition” value was inactive: 6.35%. For `COc1cccc(NC(=O)Nc2cc(C)on2)c1`, the Potency was inconclusive: 0.0112 µM [inhibitor, full curve, poor fit]. In the case of `N#CC(=C(O)COC(=O)CCC1CCCCC1)c1nc2ccccc2[nH]1`, the “activity change, negative = inhibition” value is reported as inactive: 12.4%. In the case of `Cc1ccc(NC(=S)N(CCN2CCOCC2)Cc2cc3cc4c(cc3[nH]c2=O)OCCO4)cc1`, the Potency is reported as inconclusive: 12.6 µM [inhibitor, single point]. With `CCN(CC)S(=O)(=O)c1ccc(N/N=C(\C)c2ccc3c(c2)OCO3)c([N+](=O)[O-])c1` the “activity change, negative = inhibition” value was inactive: -11.1%. For `O=C1/C(=C/c2ccccc2F)SC(=S)N1CCC(=O)N1CCCCC1CCO` (stereo not given), the “activity change, negative = inhibition” value was inactive: -10.9%. In the case of `CNCC[C@@H](Oc1ccc(C(F)(F)F)cc1)c1ccccc1`, the Potency is reported as inconclusive: 8.91 µM [inhibitor, partial curve]. For `CCOC(=O)c1c(C)[nH]c(C(=O)N/N=C/c2ccc(OC)c(OC)c2)c1C`, the Potency was inconclusive: 0.224 µM [inhibitor, full curve, poor fit]. For `CCOCC(=O)Nc1ccc(S(=O)(=O)NCC2CCCO2)cc1` (stereo not given), the “activity change, negative = inhibition” value was inactive: 2.68%. With `COCCCNC(=S)N/N=C/c1ccccc1O` the “activity change, negative = inhibition” value was inactive: -15%. In the case of `COC(=O)CSc1ncnc2c1sc1nc(N3CCOCC3)c3c(c12)CCCC3`, the “activity change, negative = inhibition” value is reported as inactive: -0.869%. In the case of `Cc1ccc(-c2nc(CN(C)C3CCOCC3)c(C)o2)s1`, the Potency is reported as inconclusive: 0.501 µM [inhibitor, full curve]. In the case of `Cc1n[nH]c(=O)n1-c1ccc(OCc2ccccc2)cc1`, the “activity change, negative = inhibition” value is reported as inactive: -2.51%. With `C(/C=C/c1ccccn1)=C\c1ccccc1` the Potency was inconclusive: 12.6 µM [inhibitor, partial curve, poor fit]. For `CCOc1ccc(N2C(=O)S/C(=C\c3ccc(O)c(OCC)c3)C2=O)cc1`, the “activity change, negative = inhibition” value was inactive: -8.37%. In the case of `CCN(CC)S(=O)(=O)c1ccc(NC(=O)c2ccc(OCC3CCCO3)cc2)cc1` (stereo not given), the Potency is reported as inconclusive: 31.6 µM [inhibitor, single point]. In the case of `COc1ccc(-c2ccc3nnc(SCC(=O)N4CCCC4)n3n2)cc1`, the Potency is reported as inconclusive: 10 µM [inhibitor, partial curve, poor fit]. For `CS(=O)(=O)c1ccc(S(=O)(=O)N2CCC(CO)(CCCc3ccccc3)CC2)cc1`, the “activity change, negative = inhibition” value was inactive: 7.31%. In the case of `CN(C)c1ccc(-c2cc3ccccc3c(=O)o2)cc1`, the Potency is reported as inconclusive: 2.24 µM [inhibitor, full curve]. For `Cc1ccc(S(=O)(=O)N2CCN(c3ncnc4ccccc34)CC2)cc1`, the Potency was inconclusive: 10 µM [inhibitor, partial curve, poor fit]. In the case of `Cc1nc2cc(NC(=O)Nc3cccc(F)c3)ccc2n1C`, the Potency is reported as active: 3.98 µM. With `O=C1C=CC(=O)N1CCCCCCN1C(=O)C=CC1=O` the “activity change, negative = inhibition” value was inactive: -13.6%. In the case of `COc1ccc(C(=O)Nc2ccc(O)c3ccccc23)cc1`, the Potency is reported as inconclusive: 11.2 µM [inhibitor, partial curve, poor fit]. For `COc1ccc(OC)c2[nH]c(C(=O)N/N=C/c3ccccc3O)cc12`, the Potency was inconclusive: 5.01 µM [inhibitor, partial curve, poor fit]. For `Cc1ccc2c(c1)COc1c3ccc(C(=O)NCCO)cc3nn1-2`, the Potency was inconclusive: 10 µM [inhibitor, partial curve, poor fit]. With `Cc1ccc(C)c(-n2nnnc2Sc2nc([N+](=O)[O-])nn2C)c1` the Potency was inconclusive: 11.2 µM [inhibitor, partial curve, poor fit]. In the case of `O=C(CSc1cccc[n+]1[O-])c1cc(Cl)ccc1Cl`, the “activity change, negative = inhibition” value is reported as inactive: 0.205%. With `Cc1ccc(-n2[nH]c(C)c(/C=N/NC(=O)c3ccc(O)cc3O)c2=O)cc1` the Potency was inconclusive: 3.55 µM [inhibitor, partial curve, poor fit]. For `Cc1ccc(S(=O)(=O)NC(=O)c2cc(C)n(-c3ccccc3)c2C)cc1`, the Potency was inconclusive: 7.08 µM [inhibitor, partial curve, poor fit]. With `COCOc1cc(O)c(C(=O)/C=C/c2ccc(OCOC)c(OCOC)c2)c(OCOC)c1` the Potency was inconclusive: 11.2 µM [inhibitor, single point]. With `O=C(O)c1cc(O)c2c(c1)[C@@H]([C@H]1c3cc(C(=O)O)cc(O)c3C(=O)c3c(O[C@@H]4O[C@H](CO)[C@@H](O)[C@H](O)[C@H]4O)cccc31)c1cccc(OC3O[C@H](CO)[C@@H](O)[C@H](O)[C@H]3O)c1C2=O` (stereo not given in full) the Potency was inconclusive: 12.6 µM [inhibitor, single point]. For `CCCc1cc(=O)oc2c3c(cc(OCC(=O)N[C@@H](C)C(=O)O)c12)OC(C)(C)CC3`, the “activity change, negative = inhibition” value was inactive: 3.55%. In the case of `COc1cc(/C=N/Nc2nc(Nc3ccccc3)nc(N3CCOCC3)n2)ccc1OC(=O)c1ccco1`, the Potency is reported as inconclusive: 8.91 µM [inhibitor, single point]. For `CCc1ccc(CN(C)C(C)C(=O)Nc2ccc(S(=O)(=O)N3CCCC3)cc2)cc1` (stereo not given), the Potency was inconclusive: 12.6 µM [inhibitor, single point]. For `CCOc1ccccc1-c1nc(CN2CCC(C(=O)N3CCOCC3)CC2)c(C)o1`, the Potency was inconclusive: 3.16 µM [inhibitor, partial curve, poor fit]. For `Cc1c(CC(=O)N2C[C@H]3C[C@@H](C2)c2cccc(=O)n2C3)c(=O)oc2cc3occ(C(C)(C)C)c3cc12`, the Potency was inconclusive: 8.91 µM [inhibitor, partial curve, poor fit]. For `CCCCNC(=O)C(C)N(CCN(C)C)C(=O)CCCCCN1C(=O)NC(c2ccc(Cl)cc2)C(C(=O)OCc2ccccc2)=C1C` (stereo not given), the Potency was inconclusive: 10 µM [inhibitor, partial curve, poor fit]. With `Cc1nc2ccc(NC(=O)c3ccc(Cl)c(S(=O)(=O)N(C)c4ccccc4)c3)cc2s1` the “activity change, negative = inhibition” value was inactive: -13.3%. In the case of `COc1ccc(NC(=O)CSc2cccc3cccnc23)c(OC)c1`, the “activity change, negative = inhibition” value is reported as inactive: 4.21%. For `CCCC(=O)c1ccc(N2CCCCC2)c(F)c1`, the Potency was inconclusive: 2.82 µM [inhibitor, single point]. In the case of `CC(=O)c1ccc(OCc2cc(C(=O)N3CCC(c4ccncc4)CC3)no2)cc1`, the Potency is reported as inconclusive: 8.91 µM [inhibitor, single point]. In the case of `Cc1cc(NC(=O)c2ccc([N+](=O)[O-])o2)ccc1NC(=O)c1ccco1`, the Potency is reported as inconclusive: 12.6 µM [inhibitor, partial curve, poor fit]. With `CCOc1ccc(N(CC(=O)Nc2cc(Cl)ccc2C)S(C)(=O)=O)cc1` the Potency was inconclusive: 31.6 µM [inhibitor, partial curve, poor fit]. For `Clc1ccc(SCNc2ccccc2Cl)cc1`, the Potency was inconclusive: 7.94 µM [inhibitor, partial curve, poor fit]. In the case of `O=C(CNc1cccc(S(=O)(=O)N2CCOCC2)c1)N1CCc2ccccc21`, the Potency is reported as inconclusive: 8.91 µM [inhibitor, single point]. With `C=CCn1c(N)cc(=O)nc1SCC(=O)N1CCN(c2ccc(F)cc2)CC1` the “activity change, negative = inhibition” value was inactive: 9.88%. In the case of `Cc1ccc(CN2CCSc3sccc3C2=O)cc1`, the Potency is reported as inconclusive: 5.01 µM [inhibitor, single point]. With `COc1ccc2cc3cc(C(=O)NC4CC4)sc3nc2c1` the Potency was inconclusive: 2.24 µM [inhibitor, partial curve]. In the case of `COc1ccc(CNC(=O)CCS(=O)(=O)c2ccc3c(c2)CC(C)N3C(=O)C2CC2)cc1` (stereo not given), the Potency is reported as inconclusive: 25.1 µM [inhibitor, partial curve, poor fit].
